The target of assay [1] is endogenous AARS1 in DC tissues (human (endogenous in duodenal cancer tissue)) (UniProt P49588). Kind of assay: co-IP; endogenous AARS1 and PARP1 in DC tissues.
Assay [2] has as its target exogenous AARS1 (human) (UniProt P49588). Nature of the assay: co-IP; exogenous AARS1 and exogenous PARP1 in cultured Hutu80 cells and WDC-1 cells.

Sequences of proteins named here, by UniProt entry; tags and fusion partners are left off.
UniProt P49588: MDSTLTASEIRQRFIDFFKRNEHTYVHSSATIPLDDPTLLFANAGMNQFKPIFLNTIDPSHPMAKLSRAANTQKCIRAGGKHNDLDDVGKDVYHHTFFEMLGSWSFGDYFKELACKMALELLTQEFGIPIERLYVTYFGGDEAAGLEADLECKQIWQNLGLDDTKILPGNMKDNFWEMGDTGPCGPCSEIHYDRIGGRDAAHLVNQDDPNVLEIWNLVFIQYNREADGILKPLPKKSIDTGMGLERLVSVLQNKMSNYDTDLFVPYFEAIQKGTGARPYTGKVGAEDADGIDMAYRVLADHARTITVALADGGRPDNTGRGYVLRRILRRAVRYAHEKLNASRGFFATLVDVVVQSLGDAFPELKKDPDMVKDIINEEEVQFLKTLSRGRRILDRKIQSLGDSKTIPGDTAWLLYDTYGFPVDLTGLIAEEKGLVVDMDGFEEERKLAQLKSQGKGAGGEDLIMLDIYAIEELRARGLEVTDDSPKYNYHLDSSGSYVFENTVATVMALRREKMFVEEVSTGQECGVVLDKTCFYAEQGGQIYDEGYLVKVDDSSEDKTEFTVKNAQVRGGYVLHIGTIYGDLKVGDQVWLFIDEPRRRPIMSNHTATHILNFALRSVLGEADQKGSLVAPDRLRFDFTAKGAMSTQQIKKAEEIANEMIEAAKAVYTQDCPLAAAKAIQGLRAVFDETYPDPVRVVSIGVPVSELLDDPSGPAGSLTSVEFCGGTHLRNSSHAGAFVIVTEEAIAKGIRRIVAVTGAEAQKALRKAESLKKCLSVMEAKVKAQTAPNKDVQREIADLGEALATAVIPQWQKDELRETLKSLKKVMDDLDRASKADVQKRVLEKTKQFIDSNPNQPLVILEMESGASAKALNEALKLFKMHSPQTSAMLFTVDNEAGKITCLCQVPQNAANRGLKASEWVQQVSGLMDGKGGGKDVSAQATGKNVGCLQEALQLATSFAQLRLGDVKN
UniProt P09874: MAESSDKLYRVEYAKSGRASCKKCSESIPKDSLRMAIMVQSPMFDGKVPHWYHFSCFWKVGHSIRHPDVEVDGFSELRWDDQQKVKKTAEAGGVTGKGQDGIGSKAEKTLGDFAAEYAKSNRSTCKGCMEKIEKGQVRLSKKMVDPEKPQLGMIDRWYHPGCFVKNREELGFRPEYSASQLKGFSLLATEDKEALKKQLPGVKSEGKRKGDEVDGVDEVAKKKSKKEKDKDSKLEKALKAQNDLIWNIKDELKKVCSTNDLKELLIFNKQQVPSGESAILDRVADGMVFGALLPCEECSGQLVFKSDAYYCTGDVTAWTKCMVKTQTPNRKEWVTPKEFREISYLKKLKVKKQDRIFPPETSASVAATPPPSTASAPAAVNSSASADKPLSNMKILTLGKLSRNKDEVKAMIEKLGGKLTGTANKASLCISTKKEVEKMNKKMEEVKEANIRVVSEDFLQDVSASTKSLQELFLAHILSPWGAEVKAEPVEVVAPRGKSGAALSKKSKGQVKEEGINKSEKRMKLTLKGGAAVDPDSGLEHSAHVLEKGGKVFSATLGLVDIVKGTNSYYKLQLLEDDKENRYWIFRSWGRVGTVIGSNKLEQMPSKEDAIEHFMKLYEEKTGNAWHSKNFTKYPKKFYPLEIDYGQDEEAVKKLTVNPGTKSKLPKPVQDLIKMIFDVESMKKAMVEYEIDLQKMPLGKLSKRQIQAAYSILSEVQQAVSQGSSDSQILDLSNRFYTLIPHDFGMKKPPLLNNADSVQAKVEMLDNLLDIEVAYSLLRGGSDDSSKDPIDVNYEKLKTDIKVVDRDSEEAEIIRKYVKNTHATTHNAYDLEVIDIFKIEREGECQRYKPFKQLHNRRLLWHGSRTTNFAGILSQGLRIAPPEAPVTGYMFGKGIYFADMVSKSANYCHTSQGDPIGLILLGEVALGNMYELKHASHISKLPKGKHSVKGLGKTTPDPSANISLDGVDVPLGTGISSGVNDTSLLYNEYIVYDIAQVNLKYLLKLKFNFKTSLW

These are yes or no findings as the source states them, for the method shown. In cells and extracts the contact can be indirect. Some results given as binding are weak or reduced against the parent protein; the word gives no strength.

On to “endogenous PARP1 in DC tissues (from UniProt P09874 1-1014) (enzyme)”, for which, in assay [1], the binding result is on record as “binds”.
In the case of “exogenous PARP1 (from UniProt P09874 1-1014) (enzyme)”, the binding entry in assay [2] is on record as “binds”.

Source of the values: publication PMC10060430.
